No constants are given. Whether binding was seen depends on the method and setting. Binding seen in cells or lysates may run through a third protein. A yes stands for co-enrichment or nearness to the bait. Other partners may have been found.

Sequences of proteins named here, by UniProt entry; tags and fusion partners are left off.
UniProt Q96L96: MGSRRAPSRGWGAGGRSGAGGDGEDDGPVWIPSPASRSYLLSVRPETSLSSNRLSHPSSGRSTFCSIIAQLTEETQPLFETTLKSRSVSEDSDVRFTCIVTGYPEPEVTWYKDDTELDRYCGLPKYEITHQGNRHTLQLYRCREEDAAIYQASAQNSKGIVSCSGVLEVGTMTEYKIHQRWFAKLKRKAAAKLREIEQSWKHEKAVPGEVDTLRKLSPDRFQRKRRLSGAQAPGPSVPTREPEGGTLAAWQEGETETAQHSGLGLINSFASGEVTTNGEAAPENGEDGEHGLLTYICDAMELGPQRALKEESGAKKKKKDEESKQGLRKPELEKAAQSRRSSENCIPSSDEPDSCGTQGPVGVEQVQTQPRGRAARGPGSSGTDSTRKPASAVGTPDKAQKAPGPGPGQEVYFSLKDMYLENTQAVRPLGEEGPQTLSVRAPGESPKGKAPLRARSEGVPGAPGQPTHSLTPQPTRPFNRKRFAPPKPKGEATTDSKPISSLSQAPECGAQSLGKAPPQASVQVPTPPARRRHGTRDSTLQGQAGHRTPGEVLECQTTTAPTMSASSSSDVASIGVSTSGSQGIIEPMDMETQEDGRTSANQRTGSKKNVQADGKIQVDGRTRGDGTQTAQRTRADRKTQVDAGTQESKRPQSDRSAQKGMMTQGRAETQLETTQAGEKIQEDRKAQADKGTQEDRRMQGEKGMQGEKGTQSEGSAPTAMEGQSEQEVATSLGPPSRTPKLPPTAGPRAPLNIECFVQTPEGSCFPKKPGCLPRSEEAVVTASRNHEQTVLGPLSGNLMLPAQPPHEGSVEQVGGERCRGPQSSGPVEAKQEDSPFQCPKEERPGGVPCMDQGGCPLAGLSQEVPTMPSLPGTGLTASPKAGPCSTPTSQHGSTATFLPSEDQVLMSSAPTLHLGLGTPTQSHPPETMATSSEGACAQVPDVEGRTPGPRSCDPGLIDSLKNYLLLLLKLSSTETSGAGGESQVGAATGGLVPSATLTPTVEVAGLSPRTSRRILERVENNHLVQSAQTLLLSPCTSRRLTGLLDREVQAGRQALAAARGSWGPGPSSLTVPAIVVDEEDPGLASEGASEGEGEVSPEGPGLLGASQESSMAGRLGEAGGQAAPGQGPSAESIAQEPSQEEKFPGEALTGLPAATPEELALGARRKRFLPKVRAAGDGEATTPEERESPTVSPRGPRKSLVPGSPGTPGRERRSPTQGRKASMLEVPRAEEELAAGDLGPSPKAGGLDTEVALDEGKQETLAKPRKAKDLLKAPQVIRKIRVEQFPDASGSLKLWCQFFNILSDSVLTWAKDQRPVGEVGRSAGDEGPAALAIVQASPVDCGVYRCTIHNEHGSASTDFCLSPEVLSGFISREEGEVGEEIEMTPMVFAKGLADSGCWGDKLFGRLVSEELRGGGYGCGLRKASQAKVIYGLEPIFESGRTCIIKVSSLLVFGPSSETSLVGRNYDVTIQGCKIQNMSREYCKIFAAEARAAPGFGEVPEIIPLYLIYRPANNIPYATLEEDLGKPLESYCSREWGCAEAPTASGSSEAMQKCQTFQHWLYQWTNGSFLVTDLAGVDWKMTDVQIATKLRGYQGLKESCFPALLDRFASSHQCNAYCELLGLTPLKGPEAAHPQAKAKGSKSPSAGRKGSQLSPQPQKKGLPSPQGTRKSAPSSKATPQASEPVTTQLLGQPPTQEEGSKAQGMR
UniProt O75147: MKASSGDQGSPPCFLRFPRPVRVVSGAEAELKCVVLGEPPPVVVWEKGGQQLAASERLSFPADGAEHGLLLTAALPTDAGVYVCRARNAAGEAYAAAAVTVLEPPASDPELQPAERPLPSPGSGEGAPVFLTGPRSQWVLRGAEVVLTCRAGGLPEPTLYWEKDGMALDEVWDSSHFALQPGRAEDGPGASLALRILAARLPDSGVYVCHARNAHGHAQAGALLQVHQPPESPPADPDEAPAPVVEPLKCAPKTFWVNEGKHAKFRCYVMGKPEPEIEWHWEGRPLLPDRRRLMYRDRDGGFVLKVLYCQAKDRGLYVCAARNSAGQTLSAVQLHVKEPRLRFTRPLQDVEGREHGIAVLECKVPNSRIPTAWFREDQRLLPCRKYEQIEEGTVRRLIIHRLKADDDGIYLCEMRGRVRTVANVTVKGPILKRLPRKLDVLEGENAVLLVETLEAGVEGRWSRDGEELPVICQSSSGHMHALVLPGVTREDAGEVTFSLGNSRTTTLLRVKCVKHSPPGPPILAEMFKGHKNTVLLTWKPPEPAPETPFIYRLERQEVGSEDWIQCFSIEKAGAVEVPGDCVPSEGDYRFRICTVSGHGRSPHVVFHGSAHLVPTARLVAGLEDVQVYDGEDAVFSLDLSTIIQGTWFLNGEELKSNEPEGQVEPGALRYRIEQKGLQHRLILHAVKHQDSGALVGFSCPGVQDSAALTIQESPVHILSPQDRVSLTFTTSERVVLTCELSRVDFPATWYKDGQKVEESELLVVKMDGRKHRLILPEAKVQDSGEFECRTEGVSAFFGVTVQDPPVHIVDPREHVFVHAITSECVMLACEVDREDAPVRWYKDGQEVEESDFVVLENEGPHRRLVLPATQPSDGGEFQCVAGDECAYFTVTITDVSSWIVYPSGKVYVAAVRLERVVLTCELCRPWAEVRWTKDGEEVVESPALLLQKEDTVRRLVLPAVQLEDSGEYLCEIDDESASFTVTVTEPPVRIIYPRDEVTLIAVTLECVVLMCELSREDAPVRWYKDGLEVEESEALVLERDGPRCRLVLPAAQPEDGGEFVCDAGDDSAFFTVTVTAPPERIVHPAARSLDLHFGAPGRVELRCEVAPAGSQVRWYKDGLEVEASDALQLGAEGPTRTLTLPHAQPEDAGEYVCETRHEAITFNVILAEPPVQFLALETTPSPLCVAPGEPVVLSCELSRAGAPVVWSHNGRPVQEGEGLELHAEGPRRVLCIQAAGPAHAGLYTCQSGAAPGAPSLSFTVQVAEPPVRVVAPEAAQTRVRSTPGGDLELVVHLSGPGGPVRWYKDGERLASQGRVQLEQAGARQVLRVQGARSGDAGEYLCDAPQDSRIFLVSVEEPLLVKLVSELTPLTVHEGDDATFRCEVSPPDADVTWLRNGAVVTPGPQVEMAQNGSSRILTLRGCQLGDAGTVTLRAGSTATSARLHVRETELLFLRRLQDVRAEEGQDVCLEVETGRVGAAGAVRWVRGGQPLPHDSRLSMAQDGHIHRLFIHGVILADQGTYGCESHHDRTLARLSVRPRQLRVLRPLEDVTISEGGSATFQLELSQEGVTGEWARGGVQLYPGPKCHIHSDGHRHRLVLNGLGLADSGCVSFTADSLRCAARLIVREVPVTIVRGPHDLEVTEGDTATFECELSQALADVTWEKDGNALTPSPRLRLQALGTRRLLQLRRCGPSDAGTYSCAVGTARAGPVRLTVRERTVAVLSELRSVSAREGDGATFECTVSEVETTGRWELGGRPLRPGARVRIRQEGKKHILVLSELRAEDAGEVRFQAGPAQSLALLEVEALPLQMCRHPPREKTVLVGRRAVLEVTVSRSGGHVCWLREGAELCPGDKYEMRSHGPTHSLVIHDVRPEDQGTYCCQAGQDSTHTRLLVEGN
UniProt Q9BYV6: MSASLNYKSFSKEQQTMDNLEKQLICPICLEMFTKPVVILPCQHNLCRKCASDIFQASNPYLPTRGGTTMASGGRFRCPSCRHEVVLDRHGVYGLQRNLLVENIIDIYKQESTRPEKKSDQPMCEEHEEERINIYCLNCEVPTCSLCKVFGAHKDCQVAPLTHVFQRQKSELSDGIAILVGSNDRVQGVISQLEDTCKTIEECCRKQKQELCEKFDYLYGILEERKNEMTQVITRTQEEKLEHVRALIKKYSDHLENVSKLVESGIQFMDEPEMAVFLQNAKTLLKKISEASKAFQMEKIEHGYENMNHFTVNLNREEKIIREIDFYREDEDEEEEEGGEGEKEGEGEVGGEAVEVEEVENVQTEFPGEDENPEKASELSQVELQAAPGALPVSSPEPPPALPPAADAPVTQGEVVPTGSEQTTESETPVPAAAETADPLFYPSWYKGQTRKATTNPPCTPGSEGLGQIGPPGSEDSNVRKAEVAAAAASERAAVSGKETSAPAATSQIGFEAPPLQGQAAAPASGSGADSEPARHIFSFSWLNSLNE

In this experiment the target is ALPK3–SBP3×FLAG (endogenous alpha kinase 3 with a C-terminal streptavidin-binding peptide 3×FLAG tag) (human (endogenous in hPSC-derived cardiomyocytes)) (UniProt Q96L96). Put plainly: affinity purification with mass spectrometry; anti-FLAG M2 immunoprecipitation (Protein G Dynabeads) from lysates of lactate-purified ALPK3–SBP3×FLAG hPSC CMs against controls; co-IP buffer 150 mM NaCl, 50 mM Tris-HCl pH 7.5, 10% glycerol, 0.1% Triton X-100; 4 °C; on-bead digest, LC-MS/MS; n = 5 per group.

As for “obscurin (OBSCN) (from UniProt Q5VST9 1-7968)”, the binding result is “binds”. On to “obscurin-like protein 1 (OBSL1) (from UniProt O75147 1-1896)”, for which the binding entry is on record as “binds”. With “E3 ligase MuRF2 (TRIM55) (from UniProt Q9BYV6 1-548)”, the binding entry was “binds”. Turning to HUWE1 (from UniProt Q7Z6Z7 1-4374), the binding entry is “binds”.

Values taken from paper PMC11358020.
